# Most values lie at the floor of the assay. Slopes are relative: functional sequences can read slightly below zero.
# Test system: Saccharomyces cerevisiae PS128 hsf1 delta, HSF1(1-493) fusion
# Experiment: growth estimate (transactivation domain function in HSF1 fusion, heat-shock survival) (a.u. (slope of normalised read count over time)); higher = stronger growth at 37°C, i.e. more transactivation activity
# Conditions: library: random library
row,Substance,growth estimate
1,GKYA,< -0.25
2,WRGNEVASRTVPLMGLLPRC,< -0.25
3,RGDWGRTNSRTRGSSERKKC,< -0.25
4,KCNEDIGSTVYMS,< -0.25
5,RFNYSWPAIVVGGHQYGAQC,< -0.25
6,KNRLTG,< -0.25
7,SLLLGVKHDVNRLRPGTRS,< -0.25
8,CLSLVVARMRAGPLV,-0.243
9,GCVPARSRKMLQVSWIEDGI,< -0.25
10,DNSFC,< -0.25
11,NLPQAITLYLVVSSSVPWTE,< -0.25
12,RGWGKRQKPYGLNCSRVGTR,< -0.25
13,LLLEMRSSTLPS,< -0.25
14,PSEARRETKSGFTPSVSRHR,< -0.25
15,FKMSMGDGAFPWATVATRGT,< -0.25
16,PLEELAWTPPSSTRASLTFM,< -0.25
17,PVRYSRRA,< -0.25
18,VGNGRGGYSLPVES,< -0.25
19,DKL,< -0.25
20,LYLRMRYTLGSASREPLNSQ,< -0.25
21,DRLMNDSVLRCGRTNSDIGS,< -0.25
22,TLQGLQAAERWGVLES,< -0.25
23,VSFGRVRFILRPLGRFCPD,< -0.25
24,SEFRAGRGCMSAHFPLATRG,-0.221
25,PGGF,< -0.25

row,Substance,growth estimate
1,LDGCPVSTAEGVSAKLPSCS,< -0.25
2,GVSPSLFLTTYGEWVR,< -0.25
3,WDGTRGRTAGNWIPVLCTTA,< -0.25
4,NRFGSRSRWGEVRRDYSLSH,< -0.25
5,HLA,< -0.25
6,APIGLRNLRQLCQCRINAAT,< -0.25
7,GAVIHPRTDTRTGSAPPLPD,< -0.25
8,QCRRFSKVTMVSRTRDGDPA,< -0.25
9,VLFPVI,< -0.25
10,GASFQTHKPGCNPATKIQRT,< -0.25
11,RRSRKRNAYIASQFREATGY,< -0.25
12,INTGTNAMGGKVRTQSGPYR,< -0.25
13,SPTRRGWLSRGVVKHW,< -0.25
14,VFPAITSNPQSEPGSAKLA,< -0.25
15,KGVTNKL,< -0.25
16,HLPKDASHTP,< -0.25
17,TTPSGRVCKEAQAIAGAPKL,< -0.25
18,CMIAFDCFAVSPVVIPESSI,< -0.25
19,EIKGLHLFPLCDTHNSMLVR,< -0.25
20,PLFQKRRKVVRVKTSDVADA,< -0.25
21,YPGAVICLRPAKVSIRLEEL,< -0.25
22,SGWRQLGTKNQVLQGRARAK,< -0.25
23,PTSEAHLE,< -0.25
24,QYGNSTILNKGQHSKYVISP,-0.245
25,DHGVYWRSKAKGATSSRIPN,< -0.25

# A few values from the results shown:
# In growth estimate, INTGTNAMGGKVRTQSGPYR reads < -0.25
# In growth estimate, SPTRRGWLSRGVVKHW reads < -0.25
# In growth estimate, VFPAITSNPQSEPGSAKLA reads < -0.25
# In growth estimate, PTSEAHLE reads < -0.25
# In growth estimate, HLPKDASHTP reads < -0.25

# (continued)

row,Substance,growth estimate
1,RLMRSRVD,< -0.25
2,KFASVRRDNSEIYCPPASNY,< -0.25
3,TVVVLHSLRELERGALVAAA,< -0.25
4,GGDSTFLALIRVESKNLWKR,< -0.25
5,AASPLIGPKVSHSTRAQLHV,< -0.25
6,EVGKVLSVYPCASP,-0.25
7,TLGQGLIPKIIPDGLSRART,-0.238
8,SCESFFGVQGGTRPTGPLCV,< -0.25
9,EWGQLEHFLWH,< -0.25
10,WDDWASVIE,0.892
11,RESIRFTPVSGGLPPMRRML,< -0.25
12,RLI,< -0.25
13,LYLDRFELY,-0.239
14,EEKIARCLADGRNPLKIIIP,< -0.25
15,SGPLRDSSLPRRVRNNRQGR,< -0.25
16,VRSKYDKCHVRRHVHLSKAP,< -0.25
17,RVEHLDGQRSTACCMSSALA,< -0.25
18,WGQAARSTHTGWTA,< -0.25
19,SRAIAFRSHAGVHLEPRVFS,< -0.25
20,LHVRSGDASLGGSG,< -0.25
21,GSLAIAIRTTSQ,-0.25
22,TSVCPRFVCGLPRGVKLGCV,< -0.25
23,GGSLVKLNCVPYCHDQPIPG,< -0.25
24,NSS,< -0.25
25,QCSLILIVVWIRDGK,< -0.25

# Laid out differently: results already given
row | Substance | growth estimate
6 | EVGKVLSVYPCASP | -0.25
7 | TLGQGLIPKIIPDGLSRART | -0.238
13 | LYLDRFELY | -0.239
16 | VRSKYDKCHVRRHVHLSKAP | < -0.25
22 | TSVCPRFVCGLPRGVKLGCV | < -0.25
23 | GGSLVKLNCVPYCHDQPIPG | < -0.25

# The results go on:

row,Substance,growth estimate
1,LPSTDISDSSAADMLLRLQR,< -0.25
2,LRHGQGLRMTQAWFCRLFPK,< -0.25
3,NSRVHEMYPRPSGRVNRLMV,< -0.25
4,LVGAPIPSNCPRTIKASTCA,< -0.25
5,QSGGPQTRGFSNYNFSMIL,< -0.25
6,SLISTSACSYDR,< -0.25
7,GCLIILSLHDKVSGLRGFLT,< -0.25
8,FVGPAHELRSRGRLCA,< -0.25
9,SGERVRQ,< -0.25
10,GGRYRSIEAFPVRDLVPISR,< -0.25
11,MWWQVSESS,< -0.25
12,RMGLRPGTYWGVRRRGPLAV,< -0.25
13,GMSY,< -0.25
14,DTRSSRDPCGSGVFLLLVKA,< -0.25
15,TSRHYACYTVSG,< -0.25
16,LGPSPHDV,< -0.25
17,DESASRRRTTPCRVLETEHG,< -0.25
18,ASVADRILN,< -0.25
19,THSS,< -0.25
20,VGITSGLGRFNRQSIRVSCD,< -0.25
21,QKDTGASSSVIRSTNLMRCA,< -0.25
22,LGGGKWRGNRHLSVSSKLPL,-0.239
23,PNLICFSCWLGNLRNAGQRS,< -0.25
24,ARTGLHVQFTAPVSNEPWCF,< -0.25
25,NFIYSHTGATSHAVEIITSW,< -0.25

row,Substance,growth estimate
1,DVGIKPMFTVWSALALRQHK,< -0.25
2,TIRGPDAGPSNVSPSFSRTL,< -0.25
3,FTRQPLLLAERIVVSGISSV,< -0.25
4,YWINGTVRPQPGTKRRYLTR,< -0.25
5,VNFG,< -0.25
6,IRIQFDK,< -0.25
7,HSRRRERQLTGHGSCVPGRG,< -0.25
8,HNHCDVGYACHGFS,< -0.25
9,FRLARTGSIRSESNAVVSLG,< -0.25
10,RNVTAFITGRRRFVLRVRA,< -0.25
11,RLAAAAKH,< -0.25
12,DRINVLDGHSISEAWSRWL,0.26
13,YCLTLVSPLRAFS,< -0.25
14,QCSRGNGHAFANHSK,< -0.25
15,CGLGGDGSTDVIPRHDR,< -0.25
16,GPCVVALQWPR,< -0.25
17,RSGCCCYNVLVSVSSRPTVA,< -0.25
18,GMCGKGHPVHWLALVIRGLL,< -0.25
19,ILAGKCGWGSESLLGSSLCV,< -0.25
20,RADCYPEPTL,< -0.25
21,HQG,< -0.25
22,YSRPTSDLC,< -0.25
23,HLTAVF,< -0.25
24,RQGVPFYDKDLI,< -0.25
25,LVRS,< -0.25

# Exported with tabs: entries from further up
row	Substance	growth estimate
1	DVGIKPMFTVWSALALRQHK	< -0.25
2	TIRGPDAGPSNVSPSFSRTL	< -0.25
3	FTRQPLLLAERIVVSGISSV	< -0.25

# The list continues.

row,Substance,growth estimate
1,KLGGMSSCLKLGAFQVRLRP,< -0.25
2,PRVLSVLR,< -0.25
3,SDWTTCSTRGNLGVGTA,< -0.25
4,NVIRVALIQSYI,< -0.25
5,EHVGLLCSWIL,< -0.25
6,HSQASNVLHPRARLLTPH,< -0.25
7,SYNVELQLCLT,< -0.25
8,LARWGTPNRTRMPSRTPIRA,< -0.25
9,GQS,< -0.25
10,LAFGSSA,< -0.25
11,EMTRNR,< -0.25
12,NTSRLVRSPRVGSSANEYPS,< -0.25
13,DNRKGLVSYRPL,< -0.25
14,VEVSG,< -0.25
15,LILPIAIQVSQSVGFWILPE,< -0.25
16,IGHARPRYTT,-0.25
17,KSHVR,< -0.25
18,NPIMESAMR,< -0.25
19,RPSLHVYDPRRSISGVLDAH,< -0.25
20,SYV,< -0.25
21,YLLGIRFCGQ,< -0.25
22,NRILL,< -0.25
23,VVSL,< -0.25
24,GDTQVWYRSSIYFLA,< -0.25
25,PGAPGLCPEELPPSLRNLWA,-0.19

row,Substance,growth estimate
1,ITRFA,< -0.25
2,YGMVRGRRLISGDNGPNTVE,< -0.25
3,GDDVLFQWRLWPLRRCLCEQ,< -0.25
4,QPVIQR,< -0.25
5,CTPGGCGHHFYPSFHRRPLP,< -0.25
6,STRWHDSSESGRMLPCSPGY,< -0.25
7,MLSPRCKSSYLRRLVESSHA,-0.246
8,GLRGHVGHREQPLLA,< -0.25
9,ASVRLLGRSSSRGSSVDLVV,< -0.25
10,CVIAPNGETL,< -0.25
11,ILQRTSI,< -0.25
12,RTALDGFRRTRAPANIRSAK,< -0.25
13,GGSRLHVRRFYLTPQLGRIP,-0.248
14,GEYVKTCEFSLVAIMFAISL,< -0.25
15,AVSYCVSNQARSPRWVQVRG,< -0.25
16,QFGRQAYPDYRKDTSSEGNG,< -0.25
17,ARTPGCRTSTVMDWIDSQDA,< -0.25
18,GATTIVS,< -0.25
19,VASAHE,< -0.25
20,LFRRLSRVSSKYEIRTQVKA,< -0.25
21,STIAVQSHWGTTWVYLVVPY,< -0.25
22,PPQDMGAPWPRGASSYWAGV,< -0.25
23,DCAP,< -0.25
24,RTCWMYARLTTDGLRSPTVA,< -0.25
25,STAIVLYQTQRSAFPSITWF,< -0.25

row,Substance,growth estimate
1,GYGSYLHSQVSRIYRPFVYL,< -0.25
2,TTTSAKLRNTEFHDPPAVSV,< -0.25
3,GARPITRAPAVLAGKPQDVR,< -0.25
4,ENCGYCPAFLPRTNSLRSTL,< -0.25
5,RGRVTASRSPNRMRDMDTLV,< -0.25
6,SEPPMRRSIDSMQRLAKSLA,-0.243
7,GNTTGKRWRAHRCWNEL,< -0.25
8,WSER,< -0.25
9,GLFV,< -0.25
10,EGRLVSAHILGGKRPGMVAT,< -0.25
11,RRTAPTNLLG,< -0.25
12,TRSRQRTEHDPS,< -0.25
13,FPFGRLTGFH,< -0.25
14,VFAGNRRDWFRISCLLLAFS,< -0.25
15,IRVQRCQSIGRLGARISAYA,< -0.25
16,EASSP,< -0.25
17,LSLDSGRIIPNDGL,< -0.25
18,RVQT,< -0.25
19,ATKESLVVLDLR,< -0.25
20,TSGVKSRHPNPIGEPPTTPR,< -0.25
21,VRVNVACPRPVTNSWVRGSK,< -0.253

# Reference: the supplement of paper PMC5949888
